In publication doi:10.1101/869503:
These are yes or no findings as the source states them, for the method shown. Binding seen in cells or lysates may run through a third protein. Some binding calls cover weakened binding; strength is not graded here.

Sequences of proteins named here, by UniProt entry; tags and fusion partners are left off. Residues count along the entry.
UniProt Q62956, residues 26-1308: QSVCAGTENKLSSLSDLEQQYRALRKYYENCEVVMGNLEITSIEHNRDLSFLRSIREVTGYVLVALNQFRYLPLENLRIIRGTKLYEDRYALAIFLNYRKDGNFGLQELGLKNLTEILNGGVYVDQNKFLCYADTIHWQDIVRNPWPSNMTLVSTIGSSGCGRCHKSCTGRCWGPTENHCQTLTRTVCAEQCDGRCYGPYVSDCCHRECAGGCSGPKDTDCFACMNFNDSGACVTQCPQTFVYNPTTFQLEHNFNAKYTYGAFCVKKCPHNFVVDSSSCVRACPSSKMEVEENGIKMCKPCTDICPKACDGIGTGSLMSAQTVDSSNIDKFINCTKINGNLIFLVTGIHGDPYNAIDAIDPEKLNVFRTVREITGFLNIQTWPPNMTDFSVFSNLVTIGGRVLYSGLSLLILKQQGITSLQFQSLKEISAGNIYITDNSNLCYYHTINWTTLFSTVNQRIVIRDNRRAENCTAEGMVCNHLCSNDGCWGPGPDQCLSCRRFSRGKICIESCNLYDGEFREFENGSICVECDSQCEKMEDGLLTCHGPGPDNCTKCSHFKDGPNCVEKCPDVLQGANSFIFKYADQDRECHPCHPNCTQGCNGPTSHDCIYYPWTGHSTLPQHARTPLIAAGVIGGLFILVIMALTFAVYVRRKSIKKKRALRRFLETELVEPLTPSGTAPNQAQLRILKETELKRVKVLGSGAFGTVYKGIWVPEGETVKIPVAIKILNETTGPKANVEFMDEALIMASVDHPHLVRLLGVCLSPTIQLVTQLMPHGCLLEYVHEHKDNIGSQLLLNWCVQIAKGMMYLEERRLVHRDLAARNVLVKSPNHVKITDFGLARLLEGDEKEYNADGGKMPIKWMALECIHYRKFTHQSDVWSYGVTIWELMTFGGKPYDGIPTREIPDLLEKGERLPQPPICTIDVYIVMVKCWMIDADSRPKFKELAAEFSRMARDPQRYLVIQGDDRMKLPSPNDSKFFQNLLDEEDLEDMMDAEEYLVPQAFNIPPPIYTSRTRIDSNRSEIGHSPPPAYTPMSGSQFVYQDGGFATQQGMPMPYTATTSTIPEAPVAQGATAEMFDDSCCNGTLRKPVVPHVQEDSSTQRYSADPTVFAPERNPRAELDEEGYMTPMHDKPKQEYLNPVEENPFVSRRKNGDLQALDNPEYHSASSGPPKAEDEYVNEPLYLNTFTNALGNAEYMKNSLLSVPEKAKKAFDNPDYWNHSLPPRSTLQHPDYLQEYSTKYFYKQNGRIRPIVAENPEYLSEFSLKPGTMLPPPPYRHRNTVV

T1: Neuregulin-1 (rat (endogenous in primary hippocampal neurons)) (UniProt P43322)
T1 sequence: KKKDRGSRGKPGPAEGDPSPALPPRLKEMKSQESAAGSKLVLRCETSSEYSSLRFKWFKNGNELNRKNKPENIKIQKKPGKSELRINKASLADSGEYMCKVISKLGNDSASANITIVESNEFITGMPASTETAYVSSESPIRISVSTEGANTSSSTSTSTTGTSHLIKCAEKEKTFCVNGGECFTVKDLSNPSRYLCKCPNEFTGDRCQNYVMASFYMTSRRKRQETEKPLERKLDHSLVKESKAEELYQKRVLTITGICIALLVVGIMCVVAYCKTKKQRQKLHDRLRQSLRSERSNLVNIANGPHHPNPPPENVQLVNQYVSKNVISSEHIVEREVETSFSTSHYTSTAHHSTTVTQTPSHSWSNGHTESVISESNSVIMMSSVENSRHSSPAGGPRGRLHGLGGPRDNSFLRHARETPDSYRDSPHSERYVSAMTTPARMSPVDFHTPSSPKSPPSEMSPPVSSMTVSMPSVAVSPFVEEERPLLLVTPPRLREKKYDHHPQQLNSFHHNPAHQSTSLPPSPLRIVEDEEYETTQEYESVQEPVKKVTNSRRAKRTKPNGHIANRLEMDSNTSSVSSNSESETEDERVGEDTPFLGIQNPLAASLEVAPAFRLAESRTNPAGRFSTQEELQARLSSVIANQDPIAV


How the values were obtained:
[1] = molecular target: T1, Neuregulin-1 (rat (endogenous in primary hippocampal neurons)); assay: co-IP
[2] = molecular target: ErbB4 (rat (endogenous in primary hippocampal neurons)) (UniProt Q62956); assay: co-IP

binding [1] | binding [2] | Molecule
binds | – | ErbB4 (from UniProt Q62956 26-1308) (receptor)
– | binds | Neuregulin-1 (ligand, UniProt P43322 14-662) KKKDRGSRGKPGPAEGDPSPALPPRLKEMKSQESAAGSKLVLRCETSSEYSSLRFKWFKNGNELNRKNKPENIKIQKKPGKSELRINKASLADSGEYMCKVISKLGNDSASANITIVESNEFITGMPASTETAYVSSESPIRISVSTEGANTSSSTSTSTTGTSHLIKCAEKEKTFCVNGGECFTVKDLSNPSRYLCKCPNEFTGDRCQNYVMASFYMTSRRKRQETEKPLERKLDHSLVKESKAEELYQKRVLTITGICIALLVVGIMCVVAYCKTKKQRQKLHDRLRQSLRSERSNLVNIANGPHHPNPPPENVQLVNQYVSKNVISSEHIVEREVETSFSTSHYTSTAHHSTTVTQTPSHSWSNGHTESVISESNSVIMMSSVENSRHSSPAGGPRGRLHGLGGPRDNSFLRHARETPDSYRDSPHSERYVSAMTTPARMSPVDFHTPSSPKSPPSEMSPPVSSMTVSMPSVAVSPFVEEERPLLLVTPPRLREKKYDHHPQQLNSFHHNPAHQSTSLPPSPLRIVEDEEYETTQEYESVQEPVKKVTNSRRAKRTKPNGHIANRLEMDSNTSSVSSNSESETEDERVGEDTPFLGIQNPLAASLEVAPAFRLAESRTNPAGRFSTQEELQARLSSVIANQDPIAV
